In PubChem BioAssay AID651640 (Broad Institute, 2012):
Among all 350,000 compounds or so, about 6,000 (1.7%) were called active. This list was built around the results that the source calls inconclusive (neither active nor inactive); the mix of calls is not that of the screen. No stated cut-off is given here; in the data, active means CPE inhibition above about 20% (passing the limit was not always enough); inconclusive means no clear call, values can overlap the other calls; tested in BHK-21 cells.

experiment: protection of cells from dengue 2 killing – plate reader, single concentration, primary screen (AID 651640); settings: DENV2-infected cells, cytopathic effect rescue, at 9.99 µM, active compounds read high;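 further: 0% = median of neutral control wells and 100% = median of positive control wells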

SMILES	CPE inhibition
CCc1cc(=O)oc2cc(OCC(=O)N3CCC[C@H]3C(=O)O)ccc12	inconclusive: 83.1%
CCn1c(SCC(=O)N2CCCCCC2)nc2c(c1=O)SCC2	inconclusive: 49%
CC(C)CC#Cc1cnc2c(c1)C(=O)N([C@H](C)CO)C[C@H](C)[C@@H](CN(C)S(=O)(=O)c1cn(C)cn1)O2	inconclusive: 21.3%
CCOc1ccc(NCc2cc3cc(OC)ccc3[nH]c2=O)cc1	inconclusive: 27.9%
COc1ccc2c(C(=O)c3ccc(C)cc3)n(Cc3ccc(C(N)=O)cc3)[n+]([O-])c2c1	inconclusive: 27.1%
O=C(COc1ccccc1)Nc1ccc2[nH]ncc2c1	inconclusive: 37.4%
Cc1cccc(OCCCN2CCOCC2)c1C	inconclusive: 25.1%
C[C@@H]1CN([C@H](C)CO)C(=O)c2cc(NS(=O)(=O)c3ccc(Cl)cc3)ccc2O[C@@H](C)CCCCO[C@@H]1CN(C)C(=O)CCCN(C)C	active: 22.4%
COc1ccc(S(=O)(=O)N2CCCCN3[C@H](C2)[C@H](c2ccc(C4=CCCC4)cc2)[C@@H]3CO)cc1	inconclusive: 33.5%
C[C@H]1CCCCO[C@H](CN(C)C(=O)Cc2ccccc2)[C@@H](C)CN([C@@H](C)CO)C(=O)c2cc(NC(=O)NC3CCCCC3)ccc2O1	active: 25.4%
O=C(CCC(=O)N1CCN(S(=O)(=O)c2ccccc2)CC1)c1ccc(Br)cc1	inactive: 7.58%
COc1ccc([C@H]2C(C(=O)O)=C[C@@H](C(C)(C)C)N2S(=O)(=O)c2ccccc2)cc1	active: 82.9%
COc1cccc(/C=C/C=O)c1	inactive: 18.5%
COc1ccc(/C=C2/SC(=O)N(CCC(=O)Nc3ccccc3)C2=O)cc1OC	inactive: -2.65%
Cc1cc(=O)n2[nH]nnc2n1	inconclusive: 42.3%
COc1cc(OC)cc(C2=Cc3ccccc3C(CC(=O)c3ccco3)N2c2ccc(-c3ccc(C(N)=O)cc3)cc2)c1 (stereo not drawn)	inconclusive: 62.2%
Cc1ccc(C)c(S(=O)(=O)Nc2nc(C)c(C(=O)Nc3ccccc3)s2)c1	inactive: 4.07%
C[C@@H]1CN([C@@H](C)CO)C(=O)Cc2cc(NS(C)(=O)=O)ccc2O[C@H]1CN(C)C(=O)Nc1cccc2ccccc12	inactive: 7.31%
CCCCNC(=O)CNC(=S)N(CCCN1CCOCC1)Cc1cccs1	active: 44.5%
O=C(COC(=O)COc1cccc(C(F)(F)F)c1)NC1CCS(=O)(=O)C1 (stereo not drawn)	inconclusive: 30.8%
c1ccc(SC23CCCCN(CCC2)[C@]32CO2)cc1 (stereo partly drawn)	inconclusive: 37.4%
C[C@@H]1CN([C@@H](C)CO)C(=O)c2cc(NC(=O)c3ccncc3)ccc2O[C@@H](C)CCCCO[C@@H]1CN(C)Cc1ccc2c(c1)OCO2	inconclusive: 62.3%
CO[C@@H]1CN(C)C(=O)c2ccc(NC(=O)Nc3cc(F)ccc3F)cc2OC[C@@H](C)N(C)C[C@@H]1C	inconclusive: 47.7%
Oc1cccc(NC(=S)Nc2ccc(SC(F)F)cc2)c1	inconclusive: 34.7%
C[C@@H]1CN([C@@H](C)CO)C(=O)c2cc(C#Cc3ccc(F)cc3)cnc2O[C@@H]1CN(C)C(=O)Nc1ccc(F)cc1	inactive: -1.11%

SMILES	CPE inhibition
CCOc1ccc(NC(=O)COc2ccc(S(=O)(=O)N3CCOCC3)cc2)cc1	inconclusive: 29.9%
C#CCOc1nc(C)cc(C)c1S(=O)(=O)c1ccccc1C	inconclusive: 28%
CC[C@]1(C(=O)OC)[C@H]2C(=O)N(Cc3ccccc3)C(=O)[C@H]2[C@H]2CN=C(SCc3ccccc3)N21	inconclusive: 28.1%
C[C@H](CO)N1C[C@H](C)[C@H](CN(C)S(=O)(=O)c2ccccc2)OCCCC[C@H](C)Oc2ccc(NC(=O)Cc3ccccc3)cc2C1=O	inconclusive: 21.7%
CC1(C(=O)NS(=O)(=O)Cc2cccc(Cl)c2)CCN1C(=O)c1cccc(F)c1 (stereo not drawn)	inactive: 19.2%
COc1ccc(C(=O)Nc2ccccc2-c2nnn(CC(N)=O)n2)cc1	inactive: -5.63%
COc1ccc(CCNC(=O)CSc2nnnn2-c2ccccc2OC)cc1OC	inconclusive: 54.1%
OC[C@@H]1[C@H](c2ccc(-c3ccc(F)cc3)cc2)[C@H]2CN(Cc3ccccn3)CCCCN12	active: 32.7%
Cc1noc(C)c1NC(=O)N(C)C[C@H]1Oc2c(NC(=O)c3ccc(-c4nccs4)cc3)cccc2C(=O)N([C@@H](C)CO)C[C@H]1C	active: 24.3%
CCOc1ccc(Cc2nnc(SCC(=O)Nc3ccc(C(C)=O)cc3)[nH]c2=O)cc1	inconclusive: 26.7%
COc1ccc(-c2cn(CC[C@@H]3CC[C@H](NC(=O)NC(C)C)[C@H](CO)O3)nn2)cc1	inactive: 12.5%
COc1cccc(C(=O)OCc2cc(=O)oc3c(C)c(C)ccc23)c1OC	inconclusive: 26.9%
CC(C)C#Cc1ccc2c(c1)O[C@H](CN(C)C(=O)c1ccccn1)[C@@H](C)CN([C@H](C)CO)S2(=O)=O	inactive: -4.94%
O=C(Cc1ccncc1)NCC[C@H]1CC[C@@H](NC(=O)C2CCC2)[C@@H](CO)O1	inactive: -5.32%
COC(=O)C1=C(C)N(Cc2cccc(C(F)(F)F)c2)C(=NCc2cccc(C(F)(F)F)c2)NC1c1ccc(Cl)cc1 (stereo not drawn)	inconclusive: 41.9%
COc1ccc(NC(=O)Nc2cccc3c2O[C@@H](CN(C)C)[C@@H](C)CN([C@@H](C)CO)C3=O)cc1	inactive: -0.146%
O=C(C1CC1)N1[C@@H](CO)[C@@H]2c3ccccc3NC[C@@H]21	active: 94.6%
COc1ccc(-c2cccc(NS(=O)(=O)c3ccccc3[N+](=O)[O-])c2)nn1	inactive: 10.5%
CC(=O)Nc1ccc(SCCC2CCCCN2C)cc1 (stereo not drawn)	inconclusive: 31.6%
CC(C)(C)OC(=O)N[C@H]1C=C[C@@H](CC(=O)OCC(F)(F)F)C1	active: 35.7%
CCC(=O)N1C[C@H]2[C@@H](c3ccccc31)[C@@H](CO)N2Cc1ccccc1F	inconclusive: 43%
CC(=O)Nc1ccc(NC(=O)C(C)OC(=O)CCN=C2NS(=O)(=O)c3ccccc32)cc1 (stereo not drawn)	inconclusive: 43%
C[C@@H]1CN([C@@H](C)CO)S(=O)(=O)c2ccc(C#Cc3ccc(F)cc3)cc2O[C@@H]1CN(C)S(C)(=O)=O	inactive: -0.616%
N#CC(c1ccc(O)cc1)c1ncc(C(F)(F)F)cc1Cl (stereo not drawn)	inconclusive: 23.8%
CCOc1ccc(/C(C)=N/NC(=O)c2nnn(-c3nonc3N)c2-c2cccs2)cc1	inconclusive: 34.2%

3 entries from above, in markdown.

| SMILES | CPE inhibition |
| --- | --- |
| COc1ccc(C(=O)Nc2ccccc2-c2nnn(CC(N)=O)n2)cc1 | inactive: -5.63% |
| CC(=O)Nc1ccc(SCCC2CCCCN2C)cc1 (stereo not drawn) | inconclusive: 31.6% |
| N#CC(c1ccc(O)cc1)c1ncc(C(F)(F)F)cc1Cl (stereo not drawn) | inconclusive: 23.8% |

Next part.

SMILES	CPE inhibition
O=S(=O)(c1cc(F)ccc1F)N1CCC2(CC1)OCCO2	inconclusive: 37.6%
Oc1cc2c(cc1O)[C@H]1c3ccc(O)c(O)c3OC[C@@]1(O)C2	inconclusive: 26.1%
CC1(C(=O)NS(=O)(=O)C2CC2)CCN(C(=O)c2ccc(F)c(Cl)c2)C1 (stereo not drawn)	inconclusive: 33%
CCC(=O)Nc1ccc2c(c1)nc(CCN1CCN(c3ccccn3)CC1)n2C	inactive: 0.997%
COc1cccc(NC(=O)N2CC(=O)N3[C@H](CO)[C@H](c4ccc(C#CC5CCCC5)cc4)[C@@H]3C2)c1	inactive: 5.78%
CC(OC(=O)c1cc(O)c2ccccc2c1O)C(=O)Nc1ccc(C(N)=O)cc1 (stereo not drawn)	inconclusive: 31.7%
COc1ccc(S(=O)(=O)Nc2ccc3c(c2)C(=O)N([C@@H](C)CO)C[C@H](C)[C@H](CN(C)S(=O)(=O)c2c(C)noc2C)OCCCC[C@@H](C)O3)cc1	active: 36%
COc1ccc(NC(=O)Nc2ccc3c(c2)C(=O)N([C@@H](C)CO)C[C@@H](C)[C@H](CN(C)C(=O)C2CCCCC2)OCCCC[C@@H](C)O3)cc1	active: 21.8%
C[C@H]1CN([C@@H](C)CO)C(=O)c2cccc(NC(=O)Nc3ccccc3)c2O[C@H]1CN(C)S(=O)(=O)c1ccc(F)cc1	inconclusive: 21.6%
N#CC1=C(N)Oc2cc(N)ccc2C1c1ccc(F)cc1F (stereo not drawn)	inconclusive: 36.5%
CO[C@H]1CN(C)C(=O)c2ccc(NS(=O)(=O)c3cccc(F)c3)cc2OC[C@@H](C)N(Cc2cc(F)ccc2F)C[C@H]1C	active: 48.9%
CO[C@@H]1CN(C)C(=O)c2ccc(NS(C)(=O)=O)cc2OC[C@H](C)N(CC2CCCCC2)C[C@H]1C	inactive: -3.96%
CCNC(=O)C1CCCN(Cc2ccc(C(=O)OCC)cc2)CC1 (stereo not drawn)	inconclusive: 29%
CC(C)(C)c1cc[n+](-c2[nH]c(=O)sc2/C=N/NC([S-])=Nc2ccccc2)cc1	inactive: -3.32%
Cc1cc(S(=O)(=O)n2cnc3cc([N+](=O)[O-])ccc32)ccc1Cl	inconclusive: 66.5%
CCCCCCC(=O)NC1CCCCN(C)C1=O (stereo not drawn)	inconclusive: 55.5%
O=C(NCC[C@@H]1CC[C@@H](NC(=O)C2CCOCC2)[C@@H](CO)O1)Nc1ccc(Cl)cc1	active: 37.6%
Cc1ccc(S(=O)(=O)N2[C@@H](c3cccc(Cl)c3)C(C(=O)O)=CC[C@H]2c2ccc(Cl)c(Cl)c2)cc1	active: 40%
COc1ccc(/C=C2\Sc3ccc(C(=O)NCCCN4CCCC4)cc3N(C)C2=O)cc1OC	inactive: -0.758%
CCCC(=O)Nc1ccc2c(c1)C(=O)N(C)[C@@H]1CC[C@@H](CC(=O)NCCc3ccccc3)O[C@@H]1CO2	inconclusive: 56.8%
COC(=O)c1c2oc(c1C(=O)OC)C(=O)N[C@H](Cc1ccccc1)Cn1cc(nn1)CNC(=O)[C@H](Cc1ccccc1)NC(=O)N[C@@H](CO)CC2	inactive: 11.3%
Cc1onc(-c2ccccc2)c1C(=O)N/N=C/c1c(F)cccc1Cl	active: 79.3%
COc1ccc(NC(=S)N(CCc2c(C)[nH]c3ccc(C)cc23)Cc2cccnc2)cc1	inconclusive: 20.7%
